Laboratory results as given in patent publication US20260265538A1, “Aqueous Industrial Product Stabilized Against Microbial Contamination” (Thor GmbH, priority 2023, published 2026).
This continues a long series; more values of the same kind are listed elsewhere.

System: Bacteria mixture 2 (alkaliphilic bacteria of the Nesterenkonia & Alkalibacterium genus)
Assay: Repetitive stress test of paints with bacteria mixture 2, semiquantitative evaluation (examples 4 and 5)
Assay type: cell-based
Design: key: 0: No growth; Minimal growth, 1 to 10 colonies visible over the entire streak; 2: Light growth, maximum 100 colonies; Moderate growth, maximum 300 to 400 colonies; Uniform growth, >400 colonies, single colonies still clearly recognizable; 5: Heavy growth, too many colonies to count, but no growth over the entire streak; 6: Full growth, barely any single colonies still apparent, growth over the entire streak
Conditions: Table 5, Paint 3, pH 11.2
From the text: Paints 1 to 3 were mixed and homogenized with various concentrations of the guanidinium salts to be tested.
The batches obtained of the paint thus prepared were inoculated repeatedly with a mixture of different wild-type bacterial strains that are of practical relevance with regard to contamination. These bacteria had previously been isolated from commercial emulsion paints containing conventional preservatives (bacteria mixture 1, Pseudomonas genus), which are microbially contaminated in practice, and commercial so-called preservative-free alkaline emulsion paints (bacteria mixture 2, alkaliphilic bacteria of the Nesterenkonia & Alkalibacterium genus), which are microbially contaminated in practice.
• Nesterenkonia sp. DSM 108520 • Nesterenkonia sp. DSM 108521 • Alkalibacterium pelagium DSM 108522 • Nesterenkonia massiliensis DSM 110679 • Nesterenkonia sp. DSM 108519
The inoculum was added to the respective sample in each inoculation at 2% (v/w) as a fresh cell suspension in a physiological saline solution (0.9% NaCl). The cell count of the added inoculum in example 1 was 10^5/ml, in examples 2 to 5 10^9/ml, and in example 6 10^6/ml, each in equal portions consisting of the individual bacterial strains. The cell suspension was produced by growing the individual bacteria at 30° C. for 24 h in liquid culture on a shaker. The medium used to grow the bacteria from bacteria mixture 1 was Müller-Hinton liquid medium. Bacteria from bacteria mixture 2 were grown in Müller-Hinton liquid medium that had been adjusted to pH 9.5-9.7 with an alkaline buffer solution beforehand. After growing, the individual liquid cultures were centrifuged, and the cells were resuspended in physiological saline solution. In order to adjust the mixture to the desired cell count, the individual bacteria suspensions, if necessary, were diluted accordingly before being combined with saline solution. The cell count of the inoculum was determined in each case by chamber counting.
In examples 2 to 6, what is called a repetitive stress test with bacteria was conducted by inoculating the samples at particular time intervals repeatedly with a bacteria suspension having a cell count of 10^9/ml (2% v/w) and monitoring the evolution of the bacteria by a semiquantitative evaluation method. After each inoculation, the samples were incubated at 30° C. for 6 days (bacteria mixture 1 and 3) or 7 and 14 days (bacteria mixture 2), and after these periods bacterial infestation was evaluated semiquantitatively in each case. For this purpose, an aliquot was taken from each sample after homogenization using a sterile plastic inoculation loop (10 μl) and streaked evenly on agar plates (bacteria mixture 1 and 3 on tryptic soy agar, bacteria mixture 2 on DSMZ 31 alkaline nutrient agar). The streaked agar plates were then incubated at 30° C. for 48 h (bacteria mixture 1 and 3) or 5 to 7 days (bacteria mixture 2). After incubation, the bacterial colonies grown on the agar plates were visually evaluated and quantified according to the following scheme:
A total of 3 inoculation cycles was performed in each repetitive stress test.
Inoculation 2% (w/v) with Bacteria Mixture 2, 10^9 CFU/ml

## N=C(N)N.N=C(N)N.O=C(O)O [guanidine carbonate]
+0.1% guanidine carbonate (656 ppm guanidine), 1. inoculation, 7 d
  Bacterial growth after inoculation: 3 (Moderate growth, maximum 300 to 400 colonies)
+0.1% guanidine carbonate (656 ppm guanidine), 1. inoculation, 14 d
  Bacterial growth after inoculation: 0
+0.1% guanidine carbonate (656 ppm guanidine), 2. inoculation, 7 d
  Bacterial growth after inoculation: 3 (Moderate growth, maximum 300 to 400 colonies)
+0.1% guanidine carbonate (656 ppm guanidine), 2. inoculation, 14 d
  Bacterial growth after inoculation: 0
+0.1% guanidine carbonate (656 ppm guanidine), 3. inoculation, 7 d
  Bacterial growth after inoculation: 5
+0.1% guanidine carbonate (656 ppm guanidine), 3. inoculation, 14 d
  Bacterial growth after inoculation: 0
+0.15% guanidine carbonate (984 ppm guanidine), 3. inoculation, 7 d
  Bacterial growth after inoculation: 4 (Uniform growth, >400 colonies, single colonies still clearly recognizable)
+0.15% guanidine carbonate (984 ppm guanidine), 3. inoculation, 14 d
  Bacterial growth after inoculation: 0
+0.2% guanidine carbonate (1312 ppm guanidine), 1. inoculation, 7 d
  Bacterial growth after inoculation: 3 (Moderate growth, maximum 300 to 400 colonies)
+0.2% guanidine carbonate (1312 ppm guanidine), 1. inoculation, 14 d
  Bacterial growth after inoculation: 0
+0.2% guanidine carbonate (1312 ppm guanidine), 2. inoculation, 7 d
  Bacterial growth after inoculation: 3 (Moderate growth, maximum 300 to 400 colonies)
+0.2% guanidine carbonate (1312 ppm guanidine), 2. inoculation, 14 d
  Bacterial growth after inoculation: 0
+0.2% guanidine carbonate (1312 ppm guanidine), 3. inoculation, 7 d
  Bacterial growth after inoculation: 3 (Moderate growth, maximum 300 to 400 colonies)
+0.2% guanidine carbonate (1312 ppm guanidine), 3. inoculation, 14 d
  Bacterial growth after inoculation: 0
+0.25% guanidine carbonate (1640 ppm guanidine), 1. inoculation, 7 d
  Bacterial growth after inoculation: 0/0
+0.25% guanidine carbonate (1640 ppm guanidine), 1. inoculation, 14 d
  Bacterial growth after inoculation: 0/0
+0.25% guanidine carbonate (1640 ppm guanidine), 2. inoculation, 7 d
  Bacterial growth after inoculation: 1 (Minimal growth, 1 to 10 colonies visible over the entire streak)
+0.25% guanidine carbonate (1640 ppm guanidine), 2. inoculation, 14 d
  Bacterial growth after inoculation: 0
+0.25% guanidine carbonate (1640 ppm guanidine), 3. inoculation, 7 d
  Bacterial growth after inoculation: 3 (Moderate growth, maximum 300 to 400 colonies)
+0.25% guanidine carbonate (1640 ppm guanidine), 3. inoculation, 14 d
  Bacterial growth after inoculation: 0
+0.3% guanidine carbonate (1968 ppm guanidine), 1. inoculation, 7 d
  Bacterial growth after inoculation: 0/0
+0.3% guanidine carbonate (1968 ppm guanidine), 1. inoculation, 14 d
  Bacterial growth after inoculation: 0/0
+0.3% guanidine carbonate (1968 ppm guanidine), 2. inoculation, 7 d
  Bacterial growth after inoculation: 1 (Minimal growth, 1 to 10 colonies visible over the entire streak)
+0.3% guanidine carbonate (1968 ppm guanidine), 2. inoculation, 14 d
  Bacterial growth after inoculation: 0
+0.3% guanidine carbonate (1968 ppm guanidine), 3. inoculation, 7 d
  Bacterial growth after inoculation: 3 (Moderate growth, maximum 300 to 400 colonies)
+0.3% guanidine carbonate (1968 ppm guanidine), 3. inoculation, 14 d
  Bacterial growth after inoculation: 0
+0.4% guanidine carbonate (2624 ppm guanidine), 1. inoculation, 7 d
  Bacterial growth after inoculation: 0/0
+0.4% guanidine carbonate (2624 ppm guanidine), 1. inoculation, 14 d
  Bacterial growth after inoculation: 0/0
+0.4% guanidine carbonate (2624 ppm guanidine), 2. inoculation, 7 d
  Bacterial growth after inoculation: 1 (Minimal growth, 1 to 10 colonies visible over the entire streak)
+0.4% guanidine carbonate (2624 ppm guanidine), 2. inoculation, 14 d
  Bacterial growth after inoculation: 0
+0.4% guanidine carbonate (2624 ppm guanidine), 3. inoculation, 7 d
  Bacterial growth after inoculation: 2 (Light growth, maximum 100 colonies)
+0.4% guanidine carbonate (2624 ppm guanidine), 3. inoculation, 14 d
  Bacterial growth after inoculation: 0
+0.5% guanidine carbonate (3280 ppm guanidine), 1. inoculation, 7 d
  Bacterial growth after inoculation: 0/0
+0.5% guanidine carbonate (3280 ppm guanidine), 1. inoculation, 14 d
  Bacterial growth after inoculation: 0/0
+0.5% guanidine carbonate (3280 ppm guanidine), 2. inoculation, 7 d
  Bacterial growth after inoculation: 0/0
+0.5% guanidine carbonate (3280 ppm guanidine), 2. inoculation, 14 d
  Bacterial growth after inoculation: 0/0
+0.5% guanidine carbonate (3280 ppm guanidine), 3. inoculation, 7 d
  Bacterial growth after inoculation: 1 (Minimal growth, 1 to 10 colonies visible over the entire streak)
+0.5% guanidine carbonate (3280 ppm guanidine), 3. inoculation, 14 d
  Bacterial growth after inoculation: 0
+0.6% guanidine carbonate (3936 ppm guanidine), 1. inoculation, 7 d
  Bacterial growth after inoculation: 0/0
+0.6% guanidine carbonate (3936 ppm guanidine), 1. inoculation, 14 d
  Bacterial growth after inoculation: 0/0
+0.6% guanidine carbonate (3936 ppm guanidine), 2. inoculation, 7 d
  Bacterial growth after inoculation: 0/0
+0.6% guanidine carbonate (3936 ppm guanidine), 2. inoculation, 14 d
  Bacterial growth after inoculation: 0/0
+0.6% guanidine carbonate (3936 ppm guanidine), 3. inoculation, 7 d
  Bacterial growth after inoculation: 2 (Light growth, maximum 100 colonies)
+0.6% guanidine carbonate (3936 ppm guanidine), 3. inoculation, 14 d
  Bacterial growth after inoculation: 0
+0.7% guanidine carbonate (4592 ppm guanidine), 1. inoculation, 7 d
  Bacterial growth after inoculation: 0/0
+0.7% guanidine carbonate (4592 ppm guanidine), 1. inoculation, 14 d
  Bacterial growth after inoculation: 0/0
+0.7% guanidine carbonate (4592 ppm guanidine), 2. inoculation, 7 d
  Bacterial growth after inoculation: 0/0
+0.7% guanidine carbonate (4592 ppm guanidine), 2. inoculation, 14 d
  Bacterial growth after inoculation: 0/0
+0.7% guanidine carbonate (4592 ppm guanidine), 3. inoculation, 7 d
  Bacterial growth after inoculation: 0/0
+0.7% guanidine carbonate (4592 ppm guanidine), 3. inoculation, 14 d
  Bacterial growth after inoculation: 0/0
+0.8% guanidine carbonate (5248 ppm guanidine), 1. inoculation, 7 d
  Bacterial growth after inoculation: 0/0
+0.8% guanidine carbonate (5248 ppm guanidine), 1. inoculation, 14 d
  Bacterial growth after inoculation: 0/0
+0.8% guanidine carbonate (5248 ppm guanidine), 2. inoculation, 7 d
  Bacterial growth after inoculation: 0/0
+0.8% guanidine carbonate (5248 ppm guanidine), 2. inoculation, 14 d
  Bacterial growth after inoculation: 0/0
+0.8% guanidine carbonate (5248 ppm guanidine), 3. inoculation, 7 d
  Bacterial growth after inoculation: 0/0
+0.8% guanidine carbonate (5248 ppm guanidine), 3. inoculation, 14 d
  Bacterial growth after inoculation: 0/0
+1.0% guanidine carbonate (6560 ppm guanidine), 1. inoculation, 7 d
  Bacterial growth after inoculation: 0/0
+1.0% guanidine carbonate (6560 ppm guanidine), 1. inoculation, 14 d
  Bacterial growth after inoculation: 0/0
+1.0% guanidine carbonate (6560 ppm guanidine), 2. inoculation, 7 d
  Bacterial growth after inoculation: 0/0
+1.0% guanidine carbonate (6560 ppm guanidine), 2. inoculation, 14 d
  Bacterial growth after inoculation: 0/0
+1.0% guanidine carbonate (6560 ppm guanidine), 3. inoculation, 7 d
  Bacterial growth after inoculation: 0/0
+1.0% guanidine carbonate (6560 ppm guanidine), 3. inoculation, 14 d
  Bacterial growth after inoculation: 0/0
